Measured values: the supplement of paper PMC3334620
In all, about 33,000 sequences were measured (“E-score (-0.5 to 0.5)”: median about -0.0034, highest 2% from about 0.25 on). The list shows a part of the results.

Biological target: T1, Yap3 (UniProt P38749)
T1 sequence: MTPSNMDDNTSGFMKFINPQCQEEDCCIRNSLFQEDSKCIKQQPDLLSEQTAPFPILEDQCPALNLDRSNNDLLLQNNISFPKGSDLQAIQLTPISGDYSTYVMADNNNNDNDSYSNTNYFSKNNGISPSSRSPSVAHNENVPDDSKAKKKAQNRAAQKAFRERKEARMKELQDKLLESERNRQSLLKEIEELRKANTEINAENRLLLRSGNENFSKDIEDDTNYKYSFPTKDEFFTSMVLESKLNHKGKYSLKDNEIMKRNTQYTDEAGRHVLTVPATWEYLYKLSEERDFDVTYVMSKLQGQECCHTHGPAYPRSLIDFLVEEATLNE
Assay: PBM E-score (8-mer binding enrichment) (E-score (-0.5 to 0.5)); higher = stronger / more preferred TF binding
Settings: protein concentration: 100 nM; construct: GST-full length
Protocol: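 Universal 'all 10-mer' protein binding microarrays (Agilent AMADID 015681) probed with GST-tagged S. cerevisiae TFs (full-length or DBD) made by in vitro transcription/translation (PURExpress), about 100-200 nM. Bound TF was detected with fluorescent anti-GST. Each ungapped 8-mer (which stands for itself and its reverse complement) is scored by the PBM enrichment score (E-score), a modified Wilcoxon-Mann-Whitney statistic from -0.5 to +0.5, computed with the Universal PBM Analysis Suite. Scale: above 0.35 generally sequence-specific binding.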

| Sequence | PBM E-score |
| --- | --- |
| CGGTACCC | -0.229 |
| AACAATGG | 0.186 |
| GCGAATAC | 0.0476 |
| AACTCAAT | 0.101 |
| AAACCCGG | -0.0294 |
| GTGCCCCA | -0.252 |
| AATTTCTA | 0.0932 |
| CAGATAAA | 0.15 |
| GGGCGATA | -0.261 |
| TCAGACAA | 0.0634 |
| ACCTAGCT | -0.156 |
| AATGGAGT | 0.0202 |
| AAAATCAT | 0.099 |
| ATGTCCTG | 0.0306 |
| GACCACCA | -0.126 |
| ATTGGATG | 0.0479 |
| GATCTTTA | 0.0282 |
| AGGTCTTC | -0.194 |
| CAGTTGGC | -0.151 |
| ACGCGATA | 0.134 |
| GGCCATTA | 0.0393 |
| CGTGTACC | -0.0435 |
| CACATACG | 0.00477 |
| AATCGCAG | 0.0612 |
| GTTGCCAA | -0.0155 |

| Sequence | PBM E-score |
| --- | --- |
| AATATCGG | 0.215 |
| CGGTCTGA | -0.0519 |
| AAGCAGCA | -0.17 |
| ATTAGTCA | 0.42 |
| CGAGGAAC | 0.0228 |
| ATTCTGGA | 0.132 |
| AGAAATGC | 0.16 |
| ACTATTAA | 0.123 |
| CAAAACAA | 0.075 |
| CCGCCCAC | -0.0479 |
| CACTCATG | 0.0014 |
| ACGCACAG | 0.0281 |
| CTTGCACC | 0.0735 |
| AGGCGCTA | 0.0291 |
| GACATTCC | -0.186 |
| AAATATTG | 0.269 |
| GTCTATGA | 0.181 |
| CCGGCAAG | 0.00534 |
| GGCGACAC | -0.162 |
| CGTCTCGA | 0.0721 |
| AAGGATCC | -0.16 |
| AATGATTA | 0.325 |
| CACCGTTA | 0.116 |
| AGGCTAAA | -0.0161 |
| AAGGATGT | -0.0734 |

| Sequence | PBM E-score |
| --- | --- |
| GGCGGGTA | -0.221 |
| AGTTCATC | -0.0605 |
| GCGATGCA | -0.188 |
| GAAGATCA | 0.0115 |
| AACGTTAC | 0.128 |
| AACTATAC | 0.0711 |
| TATCCGAA | 0.0804 |
| GAGAGCCA | -0.119 |
| CCGGGTTC | -0.34 |
| GCCAGGTA | -0.0301 |
| CCAGGCTC | -0.213 |
| AAGATCAC | 0.108 |
| CGAACAGA | 0.0315 |
| ACCAAACC | 0.115 |
| ACCGACAT | 0.00535 |
| GTCGCGAA | -0.0136 |
| AAGGGCTA | -0.0582 |
| CGAGGATC | 0.00139 |
| CCTGGGAG | -0.171 |
| GGGTGACC | -0.247 |
| GCTTTCCA | 0.0839 |
| GGTTTTCA | 0.0332 |
| GATACATC | 0.224 |
| ATGTCTAC | -0.185 |
| AAAAAACT | 0.0242 |

| Sequence | PBM E-score |
| --- | --- |
| ATGTTGGA | 0.247 |
| CCTACTCG | -0.0477 |
| CATAAACC | 0.134 |
| AGGTATGG | -0.0324 |
| CTCCAAAG | -0.112 |
| AAGATGCC | -0.0913 |
| ACTTTAGC | -0.0127 |
| AGGGGAAC | -0.188 |
| CATAACGG | 0.021 |
| CGCGTTAC | 0.212 |
| GACCTAGA | -0.156 |
| GTTAAAAC | 0.0245 |
| TTCTAAAA | 0.0712 |
| GCGTGCAC | -0.0932 |
| CATTTCCC | 0.293 |
| ATAATGCC | 0.0178 |
| TACTCTGA | 0.0683 |
| CGTCCTAA | -0.0115 |
| AATCACGT | 0.242 |
| CGCTAGCA | -0.121 |
| AACACTAA | 0.117 |
| GGAAATGA | 0.253 |
| GATAAGGA | 0.0659 |
| AACAACTG | 0.0942 |
| CCATCTAA | -0.0259 |

In another format: results already given.
Sequence,PBM E-score
CGTGTACC,-0.0435
GTTGCCAA,-0.0155
AAGATCAC,0.108
GGGTGACC,-0.247
GGTTTTCA,0.0332

Exported tab-delimited: entries from further up.
Sequence	PBM E-score
AACAATGG	0.186
CGAGGAAC	0.0228
ACTATTAA	0.123
GGAAATGA	0.253

More results.

| Sequence | PBM E-score |
| --- | --- |
| GGAATCAC | 0.112 |
| AGAGCACG | -0.187 |
| GCACGAAC | 0.224 |
| TGGCTGAA | 0.0481 |
| AGGCCGAG | -0.0483 |
| CAGATCGA | 0.0118 |
| ATGTCGGG | 0.00306 |
| ACATCGGA | 0.0174 |
| GTCATGCA | -0.0295 |
| CCCCCACG | -0.267 |
| ATCTCTAC | 0.179 |
| CACTGCCG | -0.087 |
| GACTTTAA | -0.0279 |
| AGCCTGTG | -0.177 |
| CCATGCGG | -0.161 |
| CTATAACC | -0.0722 |
| AGTTATTA | 0.184 |
| AAATTAAG | 0.135 |
| CAGTGCTA | 0.0429 |
| CTTCCTGC | -0.182 |
| ACGGGTCT | -0.283 |
| AGGATTTC | 0.0473 |
| ATGGAACC | 0.0312 |
| ACTGCGCC | -0.253 |
| AAGTAGCA | 0.135 |

| Sequence | PBM E-score |
| --- | --- |
| CCTGTCAG | -0.104 |
| GTCCGTTA | 0.107 |
| ACCTTGTG | -0.129 |
| ATAACAAA | 0.209 |
| AGACAGGG | -0.198 |
| ACAACTTA | 0.0982 |
| CAGTCACC | -0.166 |
| GAAGGGCA | -0.108 |
| AAAATACA | 0.197 |
| CGAATAGC | 0.0595 |
| CTAGGTCA | -0.136 |
| ATCGCTGG | -0.223 |
| ACGGCCCA | -0.194 |
| ATTGGGCA | -0.0331 |
| AGTTTCCG | 0.0445 |
| CAGTCTAG | -0.222 |
| GTTCAACA | 0.027 |
| AAACACCA | 0.0628 |
| TGAATCAA | 0.0222 |
| ATCATCTC | 0.0253 |
| ACGTAGAA | 0.095 |
| CACTGCAA | 0.0163 |
| ACGTCGCT | -0.104 |
| CCATAAGG | -0.0652 |
| AATCGGCG | -0.043 |

| Sequence | PBM E-score |
| --- | --- |
| TAAGGTCA | 0.00376 |
| CGCCCGGA | -0.108 |
| GGTTCCAC | -0.18 |
| GCCCCAGC | -0.148 |
| AAGTTCCC | -0.0616 |
| GTATAGGA | 0.0758 |
| GCGAAGGA | -0.201 |
| AGGACTTG | -0.316 |
| ACTGACGC | -0.0683 |
| GAGAACAA | 0.311 |
| AAAGTCTA | -0.107 |
| ATTCCACA | 0.148 |
| CCCATCAA | 0.132 |
| TGCTGCCA | -0.181 |
| CACCTTCC | 0.0339 |
| AGCTTTAT | -0.00438 |
| ATTTCCAA | -0.154 |
| AAATAGCA | 0.0385 |
| GACATTGA | 0.145 |
| CCATCCAG | -0.0947 |
| CTCGCGGA | -0.0195 |
| GGATCCTA | -0.11 |

For convenience, part of the list above.

| Sequence | PBM E-score |
| --- | --- |
| AGGACTTG | -0.316 |
| ACTGACGC | -0.0683 |
| GAGAACAA | 0.311 |
